Data from PMC9571070, “Three-Fluorophore FRET Enables the Analysis of Ternary Protein Association in Living Plant Cells” (Plants, 2022).
These are yes or no findings as the source states them, for the method shown. Binding seen in cells or lysates may run through a third protein. Some entries that bind do so weakly or less than the wild type. For part of these data: Where a sequence is shown, tags or fusion partners need not be part of it.

By UniProt entry, the sequences of proteins in these tests, tags left out. Residues count along the entry.
UniProt O22476, residues 24-1196: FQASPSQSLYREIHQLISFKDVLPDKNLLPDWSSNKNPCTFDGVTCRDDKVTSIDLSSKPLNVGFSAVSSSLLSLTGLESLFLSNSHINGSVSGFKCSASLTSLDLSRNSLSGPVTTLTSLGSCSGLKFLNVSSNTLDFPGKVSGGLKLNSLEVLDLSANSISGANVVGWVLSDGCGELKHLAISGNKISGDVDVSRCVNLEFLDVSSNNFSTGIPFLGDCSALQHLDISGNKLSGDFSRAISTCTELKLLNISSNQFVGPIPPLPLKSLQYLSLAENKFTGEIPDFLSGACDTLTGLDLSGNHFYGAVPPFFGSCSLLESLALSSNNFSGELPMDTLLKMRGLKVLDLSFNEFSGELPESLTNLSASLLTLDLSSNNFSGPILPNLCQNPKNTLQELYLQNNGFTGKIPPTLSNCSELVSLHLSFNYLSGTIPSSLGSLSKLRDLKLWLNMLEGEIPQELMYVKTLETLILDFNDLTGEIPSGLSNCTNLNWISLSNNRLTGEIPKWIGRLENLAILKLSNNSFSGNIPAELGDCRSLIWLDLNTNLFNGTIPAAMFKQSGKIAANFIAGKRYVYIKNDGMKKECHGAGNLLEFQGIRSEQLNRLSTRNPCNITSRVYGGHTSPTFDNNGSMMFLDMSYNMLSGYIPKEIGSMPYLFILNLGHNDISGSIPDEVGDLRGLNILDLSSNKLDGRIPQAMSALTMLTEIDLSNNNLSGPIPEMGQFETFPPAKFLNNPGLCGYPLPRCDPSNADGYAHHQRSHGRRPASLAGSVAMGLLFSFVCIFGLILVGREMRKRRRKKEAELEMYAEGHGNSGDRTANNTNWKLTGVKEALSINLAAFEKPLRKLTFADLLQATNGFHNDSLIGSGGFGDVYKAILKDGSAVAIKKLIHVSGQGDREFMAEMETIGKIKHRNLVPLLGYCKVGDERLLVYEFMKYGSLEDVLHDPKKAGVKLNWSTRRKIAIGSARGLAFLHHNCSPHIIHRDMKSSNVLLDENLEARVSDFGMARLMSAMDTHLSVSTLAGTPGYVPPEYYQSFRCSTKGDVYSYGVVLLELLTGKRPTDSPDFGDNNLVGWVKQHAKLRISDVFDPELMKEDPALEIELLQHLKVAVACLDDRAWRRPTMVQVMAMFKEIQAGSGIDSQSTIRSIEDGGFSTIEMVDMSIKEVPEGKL
UniProt Q9FL28, residues 24-1173: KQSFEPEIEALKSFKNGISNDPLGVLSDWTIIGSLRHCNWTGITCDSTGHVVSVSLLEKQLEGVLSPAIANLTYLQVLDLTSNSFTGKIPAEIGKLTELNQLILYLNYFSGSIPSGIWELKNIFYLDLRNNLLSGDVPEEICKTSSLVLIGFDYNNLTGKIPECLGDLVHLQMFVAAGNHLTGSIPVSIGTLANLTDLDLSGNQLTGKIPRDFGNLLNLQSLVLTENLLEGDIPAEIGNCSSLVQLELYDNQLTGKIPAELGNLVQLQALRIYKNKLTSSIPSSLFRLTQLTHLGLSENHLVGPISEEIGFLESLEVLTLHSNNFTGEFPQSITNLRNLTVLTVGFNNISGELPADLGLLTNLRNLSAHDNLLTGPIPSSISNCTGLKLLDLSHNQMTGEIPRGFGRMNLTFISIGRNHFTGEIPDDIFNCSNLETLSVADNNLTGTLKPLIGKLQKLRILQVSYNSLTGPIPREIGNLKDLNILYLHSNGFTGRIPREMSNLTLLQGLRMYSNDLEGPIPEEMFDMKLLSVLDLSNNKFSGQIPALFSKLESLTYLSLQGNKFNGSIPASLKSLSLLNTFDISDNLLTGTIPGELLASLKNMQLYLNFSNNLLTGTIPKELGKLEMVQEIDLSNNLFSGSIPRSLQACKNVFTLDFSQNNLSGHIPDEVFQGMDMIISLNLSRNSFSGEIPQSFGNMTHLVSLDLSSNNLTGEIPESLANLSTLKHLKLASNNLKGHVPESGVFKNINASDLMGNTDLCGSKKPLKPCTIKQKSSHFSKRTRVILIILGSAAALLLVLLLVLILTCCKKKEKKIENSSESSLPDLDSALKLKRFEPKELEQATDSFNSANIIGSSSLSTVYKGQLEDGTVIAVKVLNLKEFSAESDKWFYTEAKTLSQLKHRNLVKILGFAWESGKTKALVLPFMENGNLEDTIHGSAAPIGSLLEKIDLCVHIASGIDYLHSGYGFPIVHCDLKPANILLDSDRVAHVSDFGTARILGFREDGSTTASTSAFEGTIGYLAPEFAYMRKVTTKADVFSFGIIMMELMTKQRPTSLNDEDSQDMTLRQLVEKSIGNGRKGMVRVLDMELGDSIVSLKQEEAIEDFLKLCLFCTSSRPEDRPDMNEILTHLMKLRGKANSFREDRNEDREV

T1: Receptor-Like Protein 44 fused to monomeric Turquoise 2 (RLP44-mTRQ2) (UniProt Q9M2Y3)
T1 sequence: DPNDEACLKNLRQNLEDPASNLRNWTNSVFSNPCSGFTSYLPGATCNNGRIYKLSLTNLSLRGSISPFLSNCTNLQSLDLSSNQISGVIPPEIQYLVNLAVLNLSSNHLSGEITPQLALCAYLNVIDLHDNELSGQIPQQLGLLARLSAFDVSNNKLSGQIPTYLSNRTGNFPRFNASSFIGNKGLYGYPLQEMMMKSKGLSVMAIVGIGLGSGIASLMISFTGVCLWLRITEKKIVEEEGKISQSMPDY

T2: BRI1 Associated Kinase 1 fused to monomeric Venus (BAK1-mVEN) (UniProt Q94F62)
T2 sequence: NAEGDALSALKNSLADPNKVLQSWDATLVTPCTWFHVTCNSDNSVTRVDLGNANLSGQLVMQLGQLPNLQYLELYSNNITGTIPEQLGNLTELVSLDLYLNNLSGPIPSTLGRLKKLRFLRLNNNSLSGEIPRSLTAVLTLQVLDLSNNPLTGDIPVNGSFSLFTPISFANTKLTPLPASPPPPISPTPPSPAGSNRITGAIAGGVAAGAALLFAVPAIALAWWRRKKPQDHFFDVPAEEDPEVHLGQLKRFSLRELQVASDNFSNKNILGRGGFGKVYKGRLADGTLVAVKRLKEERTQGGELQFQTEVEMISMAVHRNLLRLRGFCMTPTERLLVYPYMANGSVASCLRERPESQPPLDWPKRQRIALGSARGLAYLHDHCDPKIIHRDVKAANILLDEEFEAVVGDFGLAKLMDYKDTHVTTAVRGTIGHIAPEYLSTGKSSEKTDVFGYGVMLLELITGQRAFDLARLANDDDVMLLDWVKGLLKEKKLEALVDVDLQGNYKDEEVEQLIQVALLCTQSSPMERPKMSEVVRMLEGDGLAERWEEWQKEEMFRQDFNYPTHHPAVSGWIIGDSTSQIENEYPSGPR


What was measured:
[1] = biological target: T1, Receptor-Like Protein 44 fused to monomeric Turquoise 2 (RLP44-mTRQ2); test: FRET or BRET; three-fluorophore intensity-based spectral FRET (excitation 458 nm), RLP44-mTRQ2 co-expressed with one mVEN and one mRFP fusion protein, plasma membrane of living N. benthamiana epidermal leaf cells
[2] = biological target: T1, Receptor-Like Protein 44 fused to monomeric Turquoise 2 (RLP44-mTRQ2); test: FRET or BRET; three-fluorophore FRET-FLIM, fluorescence lifetime of the donor RLP44-mTRQ2 co-expressed with one mVEN and one mRFP fusion protein, living N. benthamiana epidermal leaf cells; also with 10 nM brassinolide (no alteration)
[3] = biological target: T1, Receptor-Like Protein 44 fused to monomeric Turquoise 2 (RLP44-mTRQ2); test: FRET or BRET; intensity-based spectral FRET (lambda-stacks, excitation 458 nm), two fusion proteins co-expressed, plasma membrane of living N. benthamiana epidermal leaf cells; donor RLP44-mTRQ2, acceptor mVEN or mRFP fusion; corrected for donor-to-acceptor ratios
[4] = biological target: T2, BRI1 Associated Kinase 1 fused to monomeric Venus (BAK1-mVEN); test: FRET or BRET; three-fluorophore intensity-based spectral FRET (excitation 458 nm), RLP44-mTRQ2 co-expressed with one mVEN and one mRFP fusion protein, plasma membrane of living N. benthamiana epidermal leaf cells
[5] = biological target: T1, Receptor-Like Protein 44 fused to monomeric Turquoise 2 (RLP44-mTRQ2); test: FRET or BRET; FRET-FLIM, fluorescence lifetime of the donor RLP44-mTRQ2 (440 nm pulsed laser, TCSPC), two fusion proteins co-expressed, plasma membrane of living N. benthamiana epidermal leaf cells
[6] = biological target: Brassinosteroid Insensitive 1 fused to monomeric Venus (BRI1-mVEN) (UniProt O22476); test: FRET or BRET; three-fluorophore intensity-based spectral FRET (excitation 458 nm), RLP44-mTRQ2 co-expressed with one mVEN and one mRFP fusion protein, plasma membrane of living N. benthamiana epidermal leaf cells
[7] = biological target: Brassinosteroid Insensitive 1 fused to monomeric Venus (BRI1-mVEN) (UniProt O22476); test: FRET or BRET; three-fluorophore FRET-FLIM, fluorescence lifetime of the donor RLP44-mTRQ2 co-expressed with one mVEN and one mRFP fusion protein, living N. benthamiana epidermal leaf cells; also with 10 nM brassinolide (no alteration)
[8] = biological target: T1, Receptor-Like Protein 44 fused to monomeric Turquoise 2 (RLP44-mTRQ2); test: FRET or BRET; intensity-based spectral FRET (lambda-stacks, excitation 458 nm), two fusion proteins co-expressed, plasma membrane of living N. benthamiana epidermal leaf cells; donor RLP44-mTRQ2, acceptor mVEN or mRFP fusion; corrected for donor-to-acceptor ratios; remark: listed apart in the source

| Molecule | binding [1] | binding [2] | binding [3] | binding [4] | binding [5] | binding [6] | binding [7] | binding [8] |
| --- | --- | --- | --- | --- | --- | --- | --- | --- |
| Brassinosteroid Insensitive 1 fused to monomeric Venus (BRI1-mVEN) (from UniProt O22476 24-1196) (receptor) | binds | binds | binds |  |  |  |  |  |
| Brassinosteroid Insensitive 1 fused to monomeric red fluorescence protein 1 (BRI1-mRFP) (from UniProt O22476 24-1196) (receptor) | binds |  | binds | binds |  |  |  |  |
| Flagellin Sensing 2 fused to monomeric Venus (FLS2-mVEN) (from UniProt Q9FL28 24-1173) (receptor) |  |  | no binding |  | no binding |  |  |  |
| Flagellin Sensing 2 fused to monomeric red fluorescence protein 1 (FLS2-mRFP) (from UniProt Q9FL28 24-1173) (receptor) | no binding | no binding | no binding |  | no binding | no binding | no binding |  |
| BRI1 Associated Kinase 1 fused to monomeric Venus (BAK1-mVEN) (receptor, UniProt Q94F62 26-615) NAEGDALSALKNSLADPNKVLQSWDATLVTPCTWFHVTCNSDNSVTRVDLGNANLSGQLVMQLGQLPNLQYLELYSNNITGTIPEQLGNLTELVSLDLYLNNLSGPIPSTLGRLKKLRFLRLNNNSLSGEIPRSLTAVLTLQVLDLSNNPLTGDIPVNGSFSLFTPISFANTKLTPLPASPPPPISPTPPSPAGSNRITGAIAGGVAAGAALLFAVPAIALAWWRRKKPQDHFFDVPAEEDPEVHLGQLKRFSLRELQVASDNFSNKNILGRGGFGKVYKGRLADGTLVAVKRLKEERTQGGELQFQTEVEMISMAVHRNLLRLRGFCMTPTERLLVYPYMANGSVASCLRERPESQPPLDWPKRQRIALGSARGLAYLHDHCDPKIIHRDVKAANILLDEEFEAVVGDFGLAKLMDYKDTHVTTAVRGTIGHIAPEYLSTGKSSEKTDVFGYGVMLLELITGQRAFDLARLANDDDVMLLDWVKGLLKEKKLEALVDVDLQGNYKDEEVEQLIQVALLCTQSSPMERPKMSEVVRMLEGDGLAERWEEWQKEEMFRQDFNYPTHHPAVSGWIIGDSTSQIENEYPSGPR | binds |  |  |  |  |  |  |  |
| BRI1 Associated Kinase 1 fused to monomeric red fluorescence protein 1 (BAK1-mRFP) (receptor, UniProt Q94F62 26-615, looked up, BRI1 Associated Kinase 1 (BAK1), co-receptor kinase; also called BAK1-RFP; source: N. benthamiana epidermal leaf cells, transiently transformed, in living cells; not shown: mRFP, C-terminal, kept) NAEGDALSALKNSLADPNKVLQSWDATLVTPCTWFHVTCNSDNSVTRVDLGNANLSGQLVMQLGQLPNLQYLELYSNNITGTIPEQLGNLTELVSLDLYLNNLSGPIPSTLGRLKKLRFLRLNNNSLSGEIPRSLTAVLTLQVLDLSNNPLTGDIPVNGSFSLFTPISFANTKLTPLPASPPPPISPTPPSPAGSNRITGAIAGGVAAGAALLFAVPAIALAWWRRKKPQDHFFDVPAEEDPEVHLGQLKRFSLRELQVASDNFSNKNILGRGGFGKVYKGRLADGTLVAVKRLKEERTQGGELQFQTEVEMISMAVHRNLLRLRGFCMTPTERLLVYPYMANGSVASCLRERPESQPPLDWPKRQRIALGSARGLAYLHDHCDPKIIHRDVKAANILLDEEFEAVVGDFGLAKLMDYKDTHVTTAVRGTIGHIAPEYLSTGKSSEKTDVFGYGVMLLELITGQRAFDLARLANDDDVMLLDWVKGLLKEKKLEALVDVDLQGNYKDEEVEQLIQVALLCTQSSPMERPKMSEVVRMLEGDGLAERWEEWQKEEMFRQDFNYPTHHPAVSGWIIGDSTSQIENEYPSGPR | binds |  |  |  |  | binds |  | binds |
